Results published in the supplement of paper PMC12889115.
The other results are listed elsewhere or left out. Values are raw readings; no control value is given beside them.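 In the initial screen, polymyxin B was used at a concentration that permeabilizes Salmonella's outer membrane but not its inner membrane. Maximum growth was set by DMSO wells with or without polymyxin B. Since plates varied, data were ranked per plate, and compounds giving the lowest OD600 advanced as hits.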

Tested on: Salmonella enterica serovar Typhimurium SL1344
Test: bacterial growth OD600 after 18 h with compound and polymyxin B; higher = more bacterial growth (less inhibition)
Details: 50 µM, Mueller-Hinton broth

Compound	bacterial growth OD600 (polymyxin B 0.75 µg/mL)	bacterial growth OD600 (polymyxin B 1 µg/mL)
O=C1CCC(CCC(=O)N2CCCC(C(=O)CCc3ccccc3)C2)(Cc2ccc(Cl)cc2)N1 (stereo not given)	0.006	–
COC(=O)c1cccc(C(=O)N2CC(=O)N(c3ccc(OC)cc3)C3(CCCC3)C2)c1	0.798	–
Cc1ccc(C(C)CCN2CCOc3ccc(CN4CCC(O)(c5cccnc5)CC4)cc3C2)o1 (stereo not given)	0.942	–
CCOC(=O)C1(Cc2cccc(OC)c2)CCCN(S(=O)(=O)c2ccccc2)C1 (stereo not given)	–	0.285
COc1cc(=O)n2c(c1C(=O)NC(C)c1ccco1)CCN(Cc1ccc(C)c(C)c1)CC2 (stereo not given)	0.852	–
CC(Cc1cccs1)NC(=O)c1cccc(OC2CCN(S(C)(=O)=O)CC2)c1 (stereo not given)	–	1.03
CN(Cc1cc(-c2ccccc2)no1)C(=O)C1CCC(=O)N(C2CCCC2)C1 (stereo not given)	–	0.878
CCC(COC)NC(=O)C1CCN(c2nc(C)c3cc(C)c(C)cc3n2)CC1 (stereo not given)	0.885	–
CO[C@H]1[C@H](NC(=O)Cc2cccs2)c2ccccc2C12CCN(Cc1cc3ccccc3[nH]1)CC2	0.834	–
CN1CCN(CC2(O)CCCN(CC3CCCCC3)C2=O)CC1 (stereo not given)	–	0.909
COc1ccc(CC2(CCC(=O)NCC3(c4ccccc4)CC3(C)C)CCC(=O)N2)c(F)c1 (stereo not given)	0.584	–
Cc1ccccc1C1CCN(CCNC2CCN(c3ccc(NC(=O)c4cnccn4)cc3)CC2)C1 (stereo not given)	0.726	–
O=C1CCC(CCC(=O)N2CCC(Sc3ccc(F)cc3)CC2)(Cc2cccs2)N1 (stereo not given)	0.769	–
CCn1cc(CNC(=O)c2ccc(OC3CCN(C(=O)C4CC4)CC3)cc2)cn1	–	1.14
O=C1CCC(C(=O)N2CCS(=O)(=O)CC2)CN1Cc1cccc(F)c1 (stereo not given)	–	1.19
Cc1nc(N2CCC(C(=O)NCCOC(C)C)CC2)nc2cc(S(C)(=O)=O)ccc12	0.874	–
Cc1cccc(CN2CCCC(O)(CNC3CCCCC3)C2=O)c1 (stereo not given)	0.831	–
COc1cccc(CN2CCC(C(Cc3ccccc3F)N(C)C(=O)c3ccsc3)CC2)c1O (stereo not given)	0.688	–
COc1ccc(OC)c(CN2CCC3(CC2)CC3C(=O)N(C)CCOc2ccc(C)cc2)c1 (stereo not given)	0.822	–
COc1ccc(OC)c(-c2cc(Cl)c3c(c2)CC(CNC(=O)C(C)(C)C)O3)c1 (stereo not given)	0.005	–
O=C(Cn1c(=O)oc2ccccc21)NC1CCCN(CCCc2ccccc2)C1 (stereo not given)	–	1.18
Cc1cc(C(=O)N2CCOc3ccc(CN4CCOCC4)cc3C2)c2cccc(C)c2n1	0.847	–
Cc1ccc2oc(C(=O)NCCc3nc4ccccc4[nH]3)c(C)c2c1	–	1.06
CCN(Cc1ccncc1)C(=O)c1cc(COc2ccc3c(c2)OCO3)[nH]n1	–	0.866
COc1ccc(CC2(CCC(=O)NCCCn3nnc4ccccc43)CCC(=O)N2)c(F)c1 (stereo not given)	0.91	–
CC1CCCN(C(=O)c2coc(COc3cccc(F)c3F)n2)C1 (stereo not given)	–	0.612
COCC(=O)Nc1cnn(-c2cccc(C(=O)N(C)Cc3ccc(Oc4ccccc4)cc3)c2)c1	0.834	–
Cc1ncc2c(c1CNC(=O)c1ccccc1F)CCN(C(=O)Cc1ccc(F)c(F)c1)C2	0.797	–
CCc1cc(C(=O)NCc2nc(-c3ccc(NC(=O)c4ccc(COC)o4)cc3)oc2C)no1	0.66	–
Fc1cccc(CCC2CCCN(Cc3ncc[nH]3)C2)c1 (stereo not given)	0.758	–

Given bar-delimited: entries from further up.
Compound | bacterial growth OD600 (polymyxin B 0.75 µg/mL) | bacterial growth OD600 (polymyxin B 1 µg/mL)
Cc1ccccc1C1CCN(CCNC2CCN(c3ccc(NC(=O)c4cnccn4)cc3)CC2)C1 (stereo not given) | 0.726 | –
Cc1nc(N2CCC(C(=O)NCCOC(C)C)CC2)nc2cc(S(C)(=O)=O)ccc12 | 0.874 | –
